## Assay results

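Genome-wide siRNA knockdown in TC32 Ewing sarcoma cells, comparing luciferase light from an NR0B1-promoter reporter with a CMV-promoter reporter 48 hours after transfection. Each siRNA was applied at 20 nM. A z-score of the log NR0B1-over-CMV signal, less the median of siRNAs with the same seed; more negative means a stronger specific loss of the NR0B1 reporter.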

The strongest results of the screen are mostly left out here. Sequences are the guide (antisense) strand, without overhang.

siRNA	gene	seed-corrected z-score
AAUCAUACUUUUUAGCUGC	C5orf47	0.3505
UUUCUAGUCAGGGUGUACA	WNT8B	-0.6691
UGCAAUUUCACUCUUGGUG	KRT4	-0.4802
UGUCUUGUAACAUGGUGGG	POLR2G	-0.2153
AUAAGGUCAAGAUCUGCUG	MFF	0.5259
AAUGUAUAGACAACUGGAU	OR4F29	0.08224
UUCCGGAUGGGAACGCGUU	LOC729870	0.503
UAACGUAGCUCAUUGCACC	MCF2	0.418
UCAGUUUCAGGUACUCCUC	DDRGK1	-1.308
UAUAUUGCAAGAGCGACAC	CCNY	-1.087
AUCAGCAAAGGCUCGCUCU	DAD1	-0.1711
ACAUUCGCAACUGAUUUUU	FBXL8	0.089
UGUUCUUGGACAGCAAGGC	TBL3	0.8176
UCCUUUUCCACGGUCAGUG	FYCO1	-0.08041
UCUCGAUCCUGACUUGUCC	RTTN	0.6726
AGUAGUAAGUUGUCCAUUU	EFCC1	-0.1105
UUAGGUGUGAAAACUUCUG	ZNF141	-0.08817
UUAAGCUUCCGGGAGAUGC	NF1	0.6737
AUGGAGUCCAUGAUCAUGG	ESYT1	-0.08758
UUCCGAAACAUGACGAAGG	GRIK3	-0.2193
ACUACUAACAUUAUCAUCC	RGPD2	0.02854
UCAUCGAACUCUGAACUGC	HEG1	0.4024
UAGCGAUCAACAUUAUGGG	CFAP47	1.013
UCAGUUGCAAGAGUCAGAG	CCT4	-1.53
UGCGGUUGAAGGUUUUACC	ZNF584	-0.9117
UAUGGUCAUUGCAUUCUUC	HORMAD2	0.1201
AUUUGGACAAGGCUGAAUC	SMARCD1	1.057
AUGUCGUUAAGGAUACUGG	HEG1	-1.74
UCUUGUCUAAGUCUUCAUG	ORAOV1	-1.038
UCUGGGUCCAAUAAAUACC	KLF2	-1.669
UCUAGGAUGAUGUUGUUAC	HSPG2	-0.3429
UUUGUUAGGAUCCGAAGGC	NCOA6	0.9352
UUCAAUGUCGUCUCUUAGC	TEKT3	0.09273
UCAGAAAUAAUUCUAAUAC	C8orf44	1.021
UCCGUGUAAUCCAAGAUGC	LILRB2	-0.8582
AUUGGGUAAUGAGUCAUCG	STK17B	-0.4003
UAUUCGAUGACACUGCCUG	SUSD6	-1.624
UUACAUAUUGGUCCAUGCC	ZC2HC1B	-0.08716
UGUGGAUUCUCAACGAUGC	GMPPA	-0.5962
AGAAGUUCCACGUAGUGUU	TRPV4	-0.1991
UUUAAGUUAAGAAGAGUCC	CCL3	-0.7373
AGAGUCACAAGUCCCACCG	KRTAP1-1	-1.311
UAAGCUCUUCACUUAGUCC	NFYB	0.01003
AGGUGUACAGACAUGUUCU	RPS11	0.763

Once more, the final 5:

siRNA	gene	seed-corrected z-score
AGAAGUUCCACGUAGUGUU	TRPV4	-0.1991
UUUAAGUUAAGAAGAGUCC	CCL3	-0.7373
AGAGUCACAAGUCCCACCG	KRTAP1-1	-1.311
UAAGCUCUUCACUUAGUCC	NFYB	0.01003
AGGUGUACAGACAUGUUCU	RPS11	0.763

The results are deposited in PubChem (AID1159506; NCATS, 2015).